Test results from article PMC4081007.
Results are given in words; binding and its absence hold for the method and conditions named. In cells and extracts the contact can be indirect. Some binding calls cover weakened binding; strength is not graded here.

Protein sequences, listed by entry. Tags and fused reporters are not part of them.
UniProt Q9CW03: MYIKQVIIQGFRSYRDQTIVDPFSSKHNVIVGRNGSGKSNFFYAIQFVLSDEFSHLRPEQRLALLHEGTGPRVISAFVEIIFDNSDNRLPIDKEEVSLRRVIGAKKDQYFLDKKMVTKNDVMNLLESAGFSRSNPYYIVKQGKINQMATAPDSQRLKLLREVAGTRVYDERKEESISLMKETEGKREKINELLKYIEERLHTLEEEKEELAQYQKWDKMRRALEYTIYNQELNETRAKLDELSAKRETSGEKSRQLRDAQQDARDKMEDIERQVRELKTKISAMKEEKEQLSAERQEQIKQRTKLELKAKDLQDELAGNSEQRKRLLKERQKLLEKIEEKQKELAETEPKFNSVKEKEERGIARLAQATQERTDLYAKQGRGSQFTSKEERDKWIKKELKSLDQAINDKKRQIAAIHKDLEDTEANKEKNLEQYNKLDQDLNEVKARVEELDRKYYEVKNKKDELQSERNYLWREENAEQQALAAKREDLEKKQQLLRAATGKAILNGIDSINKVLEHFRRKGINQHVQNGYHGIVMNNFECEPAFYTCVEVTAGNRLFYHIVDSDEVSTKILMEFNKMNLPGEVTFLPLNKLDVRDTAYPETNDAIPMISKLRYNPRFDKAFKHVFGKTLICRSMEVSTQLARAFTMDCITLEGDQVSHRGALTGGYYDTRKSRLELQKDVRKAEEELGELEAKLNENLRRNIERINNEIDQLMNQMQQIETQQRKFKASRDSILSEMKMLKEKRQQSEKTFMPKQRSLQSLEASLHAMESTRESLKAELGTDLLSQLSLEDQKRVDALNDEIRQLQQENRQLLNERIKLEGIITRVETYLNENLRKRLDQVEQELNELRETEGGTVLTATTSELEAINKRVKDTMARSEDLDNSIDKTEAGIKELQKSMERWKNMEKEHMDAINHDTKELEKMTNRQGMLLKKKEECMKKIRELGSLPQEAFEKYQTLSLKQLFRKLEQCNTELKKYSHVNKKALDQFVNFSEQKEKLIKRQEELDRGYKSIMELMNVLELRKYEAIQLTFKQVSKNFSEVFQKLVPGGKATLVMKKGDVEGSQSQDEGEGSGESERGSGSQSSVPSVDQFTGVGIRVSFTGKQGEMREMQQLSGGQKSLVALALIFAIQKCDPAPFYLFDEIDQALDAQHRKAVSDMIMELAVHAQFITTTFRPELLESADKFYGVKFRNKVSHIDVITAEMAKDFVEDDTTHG

Target: SMC3 (mouse (endogenous in germ cells)) (UniProt Q9CW03)
Assay: co-IP; Dynabead Co-IP kit; 4 ug SMC3 antibody (Abcam ab9263) or IgG control antibody covalently linked per mg of beads; germ cell protein extracts from 8 week old Stag3+/- and Stag3-/- mice; blots of the eluate

B1: RAD21 (protein, UniProt Q61550 1-635)
chain: MFYAHFVLSKRGPLAKIWLAAHWDKKLTKAHVFECNLESSVESIISPKVKMALRTSGHLLLGVVRIYHRKAKYLLADCNEAFIKIKMAFRPGVVDLPEENREAAYNAITLPEEFHDFDQPLPDLDDIDVAQQFSLNQSRVEEITMREEVGNISILQENDFGDFGMDDREIMREGSAFEDDDMLVSTSASNLLLEPEQSTSNLNEKMNHLEYEDQYKDDNFGEGNDGGILDDKLISNNDGGIFDDPPALSEAGVMLPEQPAHDDMDEDDNGSLGGPDSPDSVDPVEPMPTMTDQTTLVPNEEEAFALEPIDITVKETKAKRKRKLIVDSVKELDSKTIRAQLSDYSDIVTTLDLAPPTKKLMMWKETGGVEKLFFLPAQPLWNNRLLKLFTRCLTPLVPEDLRKRRKGGEADNLDEFLKEFENPEVPREEQQPQQQQPQPQRDVIDEPIIEEPSRLQDSVMEASRTTIEESAMPPPPPQGVKRKAGQIDPEPSIPPQQVEQMEIPPVELPPEEPPNICQLIPELELLPEKEKEKEKEKEEEEEEEDEDASGGDQDQEERRWNKRTQQMLHGLQRALAKTGAESISLLELCRNTNRKQAAAKFYSFLVLKKQQAIELTQEEPYSDIIATPGPRFHII
B1 was tested, and the binding was “binds”.
